Our source for the binding values is doi:10.1101/2021.04.07.438776.

Results are given in words; binding and its absence hold for the method and conditions named. Binding seen in cells or lysates may run through a third protein. A yes stands for co-enrichment or nearness to the bait. Other partners may have been found.

This test concerns the target Caspar (Drosophila (endogenous in fly lysates)). The experiment in a line: affinity purification with mass spectrometry.

B1: Ufd1-like (protein, UniProt Q9VTF9 1-316)
chain: MFHFSGFNMMFPEGRNFHANYKCFSVSMLPGNERTDVEKGGKIIMPPSALDTLTRLNVEYPMLFKLTNVKKSRSSHAGVLEFVADEGKCYLPHWMMENLLLGEGDILNIESVSLPVATFSKFQPHSTDFLDITNPKAVLENALRNFACLTRGDVIAIKYNKKVYELCVLETKPGNAVSIIECDMNVEFEAPVGYKDHSETQASGSGQQGAAGTVGGEIAGATNAILEEVVETFKGSGVRLDGKKKKESQLETPVVKKVLARGVPDYDFQFGLIRFDRNIRPISDRSQEDDAVAGNADASDAESFHGTGFSMKKTRK
For B1, the binding entry is listed as “binds”.

B2: CCT4 (protein, UniProt Q9VK69 1-533)
chain: MAPKAAAVNIKPTAKAFKDKSKPTDVRLSNIQAAKAVSDAIRTSLGPRGMDKMIQAGNGEVSITNDGATILKQMNVLHPAAKMLVELSRAQDVAAGDGTTSVVVIAGALLEACEKLLQKGLHPTAISDSFQRCSNKAVEILKQMSTPIELDDRETLIKSASTSLNSKVVSQQSSLLAPIAVDAVLKVTDPGKETSVDLKNIKVISSLGGTVEDTELVDGLVFTCRSAGSNAPKRIEKAKIGLIQFCISAPKTDMDHNVIVSDYAAMDRVLKEERSYILNIVKQIKKSGCNVLLVQKSILRDAVSDLAQHFLDKIKCMVVKDVEREDIEFVCKTLHCRPIASLDHFTAENLSSADLVEEVASGTNKFVKITGIQNMGRTVSIICRGSNKLVLEEAARSLHDALCVVRCLVKLRAQIVGGGAPEIEMALQLAALAQTVEGVDAYCFRAFADALEVIPSTLAENAGLNPIATVTELRNRHAQGEKNAGINVRKGAITDIFAENVVQPLLVSISSITLATETIRSILKIDDIVNTFS
As to B2, the binding result is recorded as “binds”.
